Paper doi:10.1101/2020.01.02.893115

Sequences of proteins named here, by UniProt entry; tags and fusion partners are left off.
UniProt Q9FPR3: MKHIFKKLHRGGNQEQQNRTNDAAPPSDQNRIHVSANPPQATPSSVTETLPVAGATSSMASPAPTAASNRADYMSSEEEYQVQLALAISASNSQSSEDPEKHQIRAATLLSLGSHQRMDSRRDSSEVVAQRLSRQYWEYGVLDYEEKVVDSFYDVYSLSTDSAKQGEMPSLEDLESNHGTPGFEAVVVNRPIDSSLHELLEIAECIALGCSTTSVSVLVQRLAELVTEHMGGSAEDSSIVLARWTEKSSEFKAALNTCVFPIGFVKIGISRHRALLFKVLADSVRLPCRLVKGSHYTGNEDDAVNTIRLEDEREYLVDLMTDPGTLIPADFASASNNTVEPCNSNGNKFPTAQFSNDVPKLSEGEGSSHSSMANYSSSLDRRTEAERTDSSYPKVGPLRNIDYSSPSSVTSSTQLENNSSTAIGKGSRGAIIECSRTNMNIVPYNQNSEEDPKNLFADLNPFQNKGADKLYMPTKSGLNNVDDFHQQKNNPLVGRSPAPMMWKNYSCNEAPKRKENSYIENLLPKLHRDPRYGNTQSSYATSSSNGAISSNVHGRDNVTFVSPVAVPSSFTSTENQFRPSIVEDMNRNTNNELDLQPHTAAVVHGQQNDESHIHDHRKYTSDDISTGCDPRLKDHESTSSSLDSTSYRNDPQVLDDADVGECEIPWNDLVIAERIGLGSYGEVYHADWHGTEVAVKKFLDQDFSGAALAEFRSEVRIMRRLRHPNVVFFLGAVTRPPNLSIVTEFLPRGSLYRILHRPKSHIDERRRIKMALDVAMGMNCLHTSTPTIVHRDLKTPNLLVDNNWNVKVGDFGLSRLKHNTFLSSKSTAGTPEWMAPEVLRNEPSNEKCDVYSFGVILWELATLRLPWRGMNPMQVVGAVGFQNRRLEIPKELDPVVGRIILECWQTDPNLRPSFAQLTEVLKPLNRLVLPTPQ

Biological target: EDR1-sYFP (Arabidopsis thaliana) (UniProt Q9FPR3)
Assay: co-IP

binding: binds
Substance: NAA50 transiently expressed in N. benthamiana (from UniProt F4JWH4) (enzyme)

Results are given in words; binding and its absence hold for the method and conditions named. In cells and extracts the contact can be indirect. Binding can be weak; no strength is given.
